Reference: patent US20260183405A1 (priority 2022, published 2026)

Test: general procedure: solution-phase peptide synthesis; NHS active esters with DIEA
[1] = late stage modification step, TFA salt
[2] = late stage modification step, disodium

Substance: trisodium 1-[(2S)-15-{[N^2,N^6-bis(14-{4-[({(1R)-2-carboxylato-1-[3-({3-[(propylcarbamoyl)amino]benzene-1-sulfonyl}amino)phenyl]ethyl}carbamoyl)amino]anilino}-14-oxo-4,7,10-trioxa-13-azatetradecanan-1-oyl}-L-lysyl]amino)-2-(carboxylatomethyl)-4-oxo-7,10,13-trioxa-3-azapentadecanan-1-oyl]-L-prolyl-N-[(2S)-4-[{(1R)-1-[1-benzyl-4-(2,5-difluorophenyl)-1H-pyrrol-2-yl]-2,2-dimethylpropyl}(hydroxyacetyl)amino]-1-(methylamino)-1-oxobutan-2-yl]-L-valinamide
- purity (crude or final not stated) [1]: 96% purity
- step yield [1]: 100% yield

Substance: Boc-Intermediate 18
- conjugation yield (conjugation step, TFA salt): 73% yield
- final purity (method not given) (conjugation step, TFA salt): 100% purity

Substance: N^2-[3-(2-{2-[2-(L-lysylamino)ethoxy]ethoxy}ethoxy)propanoyl]-L-asparaginyl-L-prolyl-N-{3-[{(1R)-1-[1-benzyl-4-(2,5-difluorophenyl)-1H-pyrrol-2-yl]-2,2-dimethylpropyl}(hydroxyacetyl)amino]propyl}-L-valinamide
- crude LC-MS purity [1]: 92% purity
- step yield [1]: 81% yield

Substance: Boc-Intermediate 16
- final purity (method not given) (coupling step, TFA salt): 98% purity
- step yield (coupling step, TFA salt): 63% yield

Substance: (4S)-4,11-Diethyl-3,14-dioxo-3,4,12,14-tetrahydro-1H-pyrano[3′,4′:6,7]indolizino[1,2-b]quinolin-4-yl N-[3-(2-{2-[2-(L-lysylamino)ethoxy]ethoxy}ethoxy)propanoyl]-L-alpha-aspartyl-L-prolyl-L-valinate⋅trifluoroacetic acid (1:1)
- crude purity (method not given) [1]: 100% purity

Substance: PEPTIDE1{[avb3R].[PEG3].D.P.V.[MMAE-O-2open]}$$$$V2.0
- purity (crude or final not stated) [2]: 96% purity
- step yield [2]: 96% yield

Substance: trifluoroacetic acid. N-[(benzyloxy)carbonyl]-N-methyl-L-valyl-N-[(3R,4S,5S)-3-methoxy-1-{(2S)-2-[(1R,2R)-1-methoxy-2-methyl-3-oxo-3-{[(1S,2R)-1-phenyl-1-(L-valyloxy)propan-2-yl]amino}propyl]pyrrolidin-1-yl}-5-methyl-1-oxoheptan-4-yl]
- crude LC-MS purity [1]: 100% purity

Substance: trifluoroacetic acid. N,N-dimethyl-L-valyl-N-[(3R,4S,5S)-3-methoxy-1-{(2S)-2-[(1R,2R)-1-methoxy-2-methyl-3-{[(2S)-1-{[3-methyl-3-(L-valyloxy)butyl]amino}-1-oxo-3-phenylpropan-2-yl]amino}-3-oxopropyl]pyrrolidin-1-yl}-5-methyl-1-oxoheptan-4-yl]-N-methyl-L-valin
- crude LC-MS purity [1]: 95% purity
- step yield [1]: 93% yield

Substance: N^2-(3-{2-[2-(2-aminoethoxy)ethoxy]ethoxy}propanoyl)-L-asparaginyl-L-prolyl-N-[(2S)-4-[{(1R)-1-[1-benzyl-4-(2,5-difluorophenyl)-1H-pyrrol-2-yl]-2,2-dimethylpropyl}(hydroxyacetyl)amino]-1-(methylamino)-1-oxobutan-2-yl]-L-valinamide
- final LC-MS purity [1]: 96% purity
- step yield [1]: 97% yield

Substance: Boc-Intermediate 13
- final purity (method not given) (coupling step, TFA salt): 93% purity
- step yield (coupling step, TFA salt): 79% yield

Substance: Boc-Intermediate 17
- final purity (method not given) (coupling step, TFA salt): 100% purity
- step yield (coupling step, TFA salt): 55% yield

Substance: Boc-Intermediate 8
- final purity (method not given) (coupling step, TFA salt): 98% purity
- step yield (coupling step, TFA salt): 81% yield

Substance: Boc-Intermediate 9
- conjugation yield (conjugation step, TFA salt): 52% yield
- final purity (method not given) (conjugation step, TFA salt): 87% purity

Substance: Boc-Intermediate 14
- conjugation yield (conjugation step, TFA salt): 67% yield
- final purity (method not given) (conjugation step, TFA salt): 100% purity

Some peptides are written in HELM: one residue between dots, names in brackets for other building blocks, links after the first $.
